PubChem BioAssay AID1224830, NIAID | 2016
Here is an unselected part of about 18,000 reagents tested. About 2,900 of them (16%) were called active. 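Calls are made per well; low scores hint the gene aids the LPS response, high scores that it dampens it.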 A number with no mark means an inactive call. Repeated entries: four replicate wells of each siRNA pool.

Assay: 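Genes whose knock-down alters the TNF-alpha reporter response to LPS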 (primary screen)
System: human THP-1 monocytic leukaemia cells, TNF dual-luciferase reporter clone, PMA-differentiated to macrophage-like cells
Knock-down reagent: siRNA pool against human genes, 50 nM
Duration: LPS for 4 h, given about 3 days after siRNA transfection
Treatment: bacterial LPS (TLR4 ligand), 10 ng/ml
Measurement: 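Ratio of firefly to renilla light, scaled to the plate median and expressed as a robust z-score per replicate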
Direction: TNF reporter robust z-score: higher = stronger TNF reporter response to LPS
Active means: 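a well is active when its z-score exceeds 2.8 or falls below -1.5; control wells carry no call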

The first 6 records, to show the layout:
TNF reporter robust z-score,gene symbol
-0.52,TM4SF18
-0.67,TM4SF18
-0.66,TM4SF18
-1.06,TM4SF18
1.69,SAE1
1.41,SAE1

Main list, repeating the preview:
TNF reporter robust z-score,gene symbol
-0.52,TM4SF18
-0.67,TM4SF18
-0.66,TM4SF18
-1.06,TM4SF18
1.69,SAE1
1.41,SAE1
2.26,SAE1
1.84,SAE1
0.37,PHGDH
1.93,PHGDH
0.91,PHGDH
0.65,PHGDH
-0.07,PLEKHG5
-0.89,PLEKHG5
0.36,PLEKHG5
-0.15,PLEKHG5
-0.09,RPRD1B
0.24,RPRD1B
-0.32,RPRD1B
-0.28,RPRD1B
-1.28,GCAT
-0.16,GCAT
-0.76,GCAT
0.23,GCAT
2.83 (active),TNFSF9
2.45,TNFSF9
2.92 (active),TNFSF9
2.73,TNFSF9
-0.44,ANKRD11
-0.27,ANKRD11
-0.81,ANKRD11
0.78,ANKRD11
-1.66 (active),ANLN
-0.19,ANLN
-0.69,ANLN
-0.39,ANLN
-0.37,RIC8B
-0.59,RIC8B
-0.12,RIC8B
-0.85,RIC8B
1.19,ACSM3
2.29,ACSM3
1.28,ACSM3
1.86,ACSM3
-0.3,GJC1
0.69,GJC1
-0.16,GJC1
0.01,GJC1
